Reference: patent US20250145711A1
No constants are given. Whether binding was seen depends on the method and setting. Some results given as binding are weak or reduced against the parent protein; the word gives no strength.

Sequences of proteins named here, by UniProt entry; tags and fusion partners are left off. Residues count along the entry.
UniProt P40259, residues 29-159: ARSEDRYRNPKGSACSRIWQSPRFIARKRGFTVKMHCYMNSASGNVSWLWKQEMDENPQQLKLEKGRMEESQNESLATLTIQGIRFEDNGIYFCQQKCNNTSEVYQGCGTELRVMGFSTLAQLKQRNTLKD

Experiments:
[1] = target: TRCW5 antigen (CD3δε-Fc-Avi); assay: ELISA: biotinylated TRCW5 on streptavidin plates at the antigen concentration of the x axis, E. coli scFv supernatant, anti-HA-HRP, luminescence
[2] = target: TRCW5 antigen (CD3δε-Fc-Avi); assay: ELISA / cell binding after heat
[3] = target: CD79b (HDX-MS antigen) (human) (UniProt P40259); assay: HDX-MS

B1: CD3B1134 (scFv)
scFv: DIQLTQSPSSLSASVGDRVTITCSASSSVSYMNWYQQKPGTSPKRLIYDSSKLASGVPSRFSGSGSGTDYTLTISSLQPEDFATYYCQQWSRNPPTFGGGTKVEIKGGSEGKSSGSGSESKSTGGSEVQLVQSGAEVKKPGESLRISCKASGYTFTRSTMHWVRQMPGKGLEWMGYINPSSAYTNYNPSFQGHVTLSADKSISTAYLQWSSLKASDTAMYYCARPQVHYDYNGFPYWGQGTLVTVSS
[1]
  binding: no binding (tested: 10 ug/ml (antigen))

B2: CD3B2089 (scFv)
scFv: QVQLVQSGAEVKKPGSSVKVSCKASGYTFTRSTMHWVRQAPGQGLEWMGYINPSSAYTNYAQKFQGRVTLTADKSTSTAYMELSSLRSEDTAVYYCASPQVHYDYNGFPYWGQGTLVTVSSGGSEGKSSGSGSESKSTGGSEIVLTQSPATLSASPGERVTLSCSASSSVSYMNWYQQKPGQAPRRWIYDSSKLASGVPARFSGSGSGRDYTLTISSLEPEDFAVYYCQQWSRNPPTFGGGTKVEIK
[2]
  binding: binds

B3: CD9B643 (antibody, V domains shown)
VH: QVQLQESGPGLVKPSQTLSLTCTVSGVSISNYYWSWIRQPPGKGLEWIGRISPSGRTNYNPSLKSRVTMSLDASKNQFSLKLSSVTAADTAVYYCARGEYSGTYSYSFDIWGQGTMVTVSS
VL: DIQMTQSPSSLSASVGDRVTITCRSSQSLFDSDDGNTYLDWFQQKPGQSPKLLIQTLSYRASGVPSRFSGSGSGTDFTLTISSLQPEDFATYYCMQRMEFPLTFGGGTKVEIKR
[3]
  binding: binds
